This is one part of the list. Most values lie at the level of the controls, where differences are scatter.

Protein sequences, listed by entry. Tags and fused reporters are not part of them. Lines headed by an entry give the natural chain unless they say otherwise; changes in a name come on top.
UniProt O75486: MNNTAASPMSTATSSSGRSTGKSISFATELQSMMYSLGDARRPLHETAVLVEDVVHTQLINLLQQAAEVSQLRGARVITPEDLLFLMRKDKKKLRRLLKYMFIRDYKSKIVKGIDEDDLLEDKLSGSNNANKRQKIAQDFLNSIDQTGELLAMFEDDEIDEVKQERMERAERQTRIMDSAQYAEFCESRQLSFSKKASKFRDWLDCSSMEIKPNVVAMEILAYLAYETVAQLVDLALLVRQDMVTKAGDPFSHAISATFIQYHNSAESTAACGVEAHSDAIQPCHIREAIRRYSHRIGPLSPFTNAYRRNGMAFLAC
UniProt O95757: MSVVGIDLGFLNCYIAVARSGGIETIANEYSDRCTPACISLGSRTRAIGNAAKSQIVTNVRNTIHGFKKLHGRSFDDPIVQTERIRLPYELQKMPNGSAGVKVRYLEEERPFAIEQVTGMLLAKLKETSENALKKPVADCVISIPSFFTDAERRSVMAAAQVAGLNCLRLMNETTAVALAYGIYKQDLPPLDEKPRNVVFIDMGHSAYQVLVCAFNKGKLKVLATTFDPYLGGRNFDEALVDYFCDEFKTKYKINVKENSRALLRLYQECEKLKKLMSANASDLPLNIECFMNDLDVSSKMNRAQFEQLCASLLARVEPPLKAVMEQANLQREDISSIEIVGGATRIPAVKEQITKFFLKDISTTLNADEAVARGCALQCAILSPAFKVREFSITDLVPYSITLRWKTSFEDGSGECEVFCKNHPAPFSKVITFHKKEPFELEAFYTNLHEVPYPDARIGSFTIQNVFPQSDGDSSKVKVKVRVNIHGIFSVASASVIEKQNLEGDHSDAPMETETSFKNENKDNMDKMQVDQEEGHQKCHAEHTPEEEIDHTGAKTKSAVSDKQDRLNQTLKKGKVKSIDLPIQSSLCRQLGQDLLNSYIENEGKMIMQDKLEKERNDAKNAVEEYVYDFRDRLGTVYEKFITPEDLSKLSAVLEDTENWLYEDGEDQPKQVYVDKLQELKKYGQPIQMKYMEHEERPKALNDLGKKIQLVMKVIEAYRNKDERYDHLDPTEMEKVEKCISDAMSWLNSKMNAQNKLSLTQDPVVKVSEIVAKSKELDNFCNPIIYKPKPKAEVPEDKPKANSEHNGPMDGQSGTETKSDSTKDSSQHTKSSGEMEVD
UniProt O95619, whole entry: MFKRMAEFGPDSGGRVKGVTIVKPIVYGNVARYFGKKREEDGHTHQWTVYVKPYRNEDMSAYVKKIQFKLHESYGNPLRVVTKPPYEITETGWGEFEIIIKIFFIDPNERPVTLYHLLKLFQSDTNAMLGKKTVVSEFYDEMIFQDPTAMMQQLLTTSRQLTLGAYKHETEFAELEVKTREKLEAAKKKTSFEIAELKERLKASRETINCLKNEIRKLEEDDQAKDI
UniProt O94822: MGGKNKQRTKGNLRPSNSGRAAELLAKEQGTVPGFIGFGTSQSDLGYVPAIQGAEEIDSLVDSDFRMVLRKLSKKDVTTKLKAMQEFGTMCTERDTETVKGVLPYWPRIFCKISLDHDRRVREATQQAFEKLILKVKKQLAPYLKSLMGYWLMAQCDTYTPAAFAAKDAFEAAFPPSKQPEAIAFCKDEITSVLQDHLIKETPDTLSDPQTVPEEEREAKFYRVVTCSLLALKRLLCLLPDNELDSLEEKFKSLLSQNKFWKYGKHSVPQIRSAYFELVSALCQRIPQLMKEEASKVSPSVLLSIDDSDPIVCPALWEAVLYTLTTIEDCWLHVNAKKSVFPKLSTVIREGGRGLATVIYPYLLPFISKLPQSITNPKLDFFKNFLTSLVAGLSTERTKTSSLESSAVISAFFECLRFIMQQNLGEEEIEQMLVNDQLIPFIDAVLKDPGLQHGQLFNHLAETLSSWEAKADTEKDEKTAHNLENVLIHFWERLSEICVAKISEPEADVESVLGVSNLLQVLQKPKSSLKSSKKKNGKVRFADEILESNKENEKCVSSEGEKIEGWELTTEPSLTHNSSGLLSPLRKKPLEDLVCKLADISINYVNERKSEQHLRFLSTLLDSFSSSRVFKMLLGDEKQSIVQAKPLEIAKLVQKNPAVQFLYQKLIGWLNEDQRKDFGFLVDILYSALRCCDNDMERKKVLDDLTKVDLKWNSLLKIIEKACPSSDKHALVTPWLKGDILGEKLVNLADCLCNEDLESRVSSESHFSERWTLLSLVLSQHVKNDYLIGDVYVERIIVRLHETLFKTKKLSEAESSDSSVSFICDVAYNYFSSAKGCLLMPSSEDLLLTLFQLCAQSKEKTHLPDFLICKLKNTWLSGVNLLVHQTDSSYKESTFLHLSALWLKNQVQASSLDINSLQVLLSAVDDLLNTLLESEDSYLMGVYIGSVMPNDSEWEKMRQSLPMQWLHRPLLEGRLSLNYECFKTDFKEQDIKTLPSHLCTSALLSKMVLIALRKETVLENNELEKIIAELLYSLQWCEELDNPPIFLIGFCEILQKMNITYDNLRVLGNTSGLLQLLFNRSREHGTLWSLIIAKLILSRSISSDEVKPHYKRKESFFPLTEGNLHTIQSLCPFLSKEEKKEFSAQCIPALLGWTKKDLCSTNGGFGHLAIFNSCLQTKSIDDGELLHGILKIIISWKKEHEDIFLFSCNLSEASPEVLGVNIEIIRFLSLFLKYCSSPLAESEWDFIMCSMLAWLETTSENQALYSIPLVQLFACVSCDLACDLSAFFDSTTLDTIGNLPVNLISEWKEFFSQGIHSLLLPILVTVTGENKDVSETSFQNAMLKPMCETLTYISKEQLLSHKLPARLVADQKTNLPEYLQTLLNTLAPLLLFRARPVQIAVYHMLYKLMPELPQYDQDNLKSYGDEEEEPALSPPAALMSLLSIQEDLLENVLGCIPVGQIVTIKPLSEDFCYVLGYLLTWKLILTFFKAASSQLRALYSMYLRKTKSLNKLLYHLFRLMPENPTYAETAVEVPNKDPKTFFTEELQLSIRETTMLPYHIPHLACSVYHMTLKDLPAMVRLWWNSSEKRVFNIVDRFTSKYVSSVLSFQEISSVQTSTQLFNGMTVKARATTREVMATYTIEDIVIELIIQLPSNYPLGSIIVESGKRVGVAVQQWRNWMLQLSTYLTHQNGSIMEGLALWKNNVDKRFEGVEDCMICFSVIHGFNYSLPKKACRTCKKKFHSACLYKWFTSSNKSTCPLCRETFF
UniProt O94972: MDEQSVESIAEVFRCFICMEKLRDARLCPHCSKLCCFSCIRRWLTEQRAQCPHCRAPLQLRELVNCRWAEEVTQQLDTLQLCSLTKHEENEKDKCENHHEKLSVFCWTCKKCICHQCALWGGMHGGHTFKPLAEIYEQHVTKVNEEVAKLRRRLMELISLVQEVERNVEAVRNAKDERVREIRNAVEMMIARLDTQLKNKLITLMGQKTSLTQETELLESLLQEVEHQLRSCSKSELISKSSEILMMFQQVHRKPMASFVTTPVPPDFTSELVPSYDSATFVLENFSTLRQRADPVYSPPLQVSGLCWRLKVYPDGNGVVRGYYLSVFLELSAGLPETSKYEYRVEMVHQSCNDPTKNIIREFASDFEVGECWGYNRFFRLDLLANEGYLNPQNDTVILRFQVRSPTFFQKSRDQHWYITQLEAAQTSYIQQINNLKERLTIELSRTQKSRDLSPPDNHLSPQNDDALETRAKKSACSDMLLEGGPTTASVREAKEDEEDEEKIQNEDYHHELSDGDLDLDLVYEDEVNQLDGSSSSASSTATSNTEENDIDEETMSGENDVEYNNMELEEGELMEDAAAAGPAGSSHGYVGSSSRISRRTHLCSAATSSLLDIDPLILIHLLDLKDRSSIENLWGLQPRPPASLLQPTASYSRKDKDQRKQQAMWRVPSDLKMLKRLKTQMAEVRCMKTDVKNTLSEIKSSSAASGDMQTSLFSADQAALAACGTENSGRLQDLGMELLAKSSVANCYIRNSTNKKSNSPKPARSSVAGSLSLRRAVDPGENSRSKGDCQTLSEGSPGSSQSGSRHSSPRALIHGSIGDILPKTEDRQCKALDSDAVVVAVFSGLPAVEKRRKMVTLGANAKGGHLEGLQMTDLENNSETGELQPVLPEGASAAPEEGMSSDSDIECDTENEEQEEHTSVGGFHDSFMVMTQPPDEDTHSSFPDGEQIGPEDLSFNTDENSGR
UniProt O75494: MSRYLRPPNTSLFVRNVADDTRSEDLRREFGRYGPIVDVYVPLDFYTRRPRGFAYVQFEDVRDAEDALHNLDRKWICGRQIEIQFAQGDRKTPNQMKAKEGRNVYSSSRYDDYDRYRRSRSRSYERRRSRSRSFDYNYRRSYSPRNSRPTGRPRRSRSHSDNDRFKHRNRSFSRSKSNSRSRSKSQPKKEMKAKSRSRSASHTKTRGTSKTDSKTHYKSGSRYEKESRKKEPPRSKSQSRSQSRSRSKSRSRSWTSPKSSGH
UniProt O75449: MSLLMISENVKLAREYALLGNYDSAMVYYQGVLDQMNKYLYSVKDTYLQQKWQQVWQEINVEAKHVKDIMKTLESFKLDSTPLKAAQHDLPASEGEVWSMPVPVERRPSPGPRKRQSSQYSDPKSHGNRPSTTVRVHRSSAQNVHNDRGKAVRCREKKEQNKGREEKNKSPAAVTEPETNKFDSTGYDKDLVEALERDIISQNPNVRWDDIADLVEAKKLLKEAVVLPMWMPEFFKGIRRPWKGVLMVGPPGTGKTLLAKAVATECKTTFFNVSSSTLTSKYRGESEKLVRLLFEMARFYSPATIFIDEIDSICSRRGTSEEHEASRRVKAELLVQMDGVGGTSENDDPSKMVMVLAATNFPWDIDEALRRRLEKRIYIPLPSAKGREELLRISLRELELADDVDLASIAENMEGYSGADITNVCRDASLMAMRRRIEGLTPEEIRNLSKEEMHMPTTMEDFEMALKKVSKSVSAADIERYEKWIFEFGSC
UniProt O94830: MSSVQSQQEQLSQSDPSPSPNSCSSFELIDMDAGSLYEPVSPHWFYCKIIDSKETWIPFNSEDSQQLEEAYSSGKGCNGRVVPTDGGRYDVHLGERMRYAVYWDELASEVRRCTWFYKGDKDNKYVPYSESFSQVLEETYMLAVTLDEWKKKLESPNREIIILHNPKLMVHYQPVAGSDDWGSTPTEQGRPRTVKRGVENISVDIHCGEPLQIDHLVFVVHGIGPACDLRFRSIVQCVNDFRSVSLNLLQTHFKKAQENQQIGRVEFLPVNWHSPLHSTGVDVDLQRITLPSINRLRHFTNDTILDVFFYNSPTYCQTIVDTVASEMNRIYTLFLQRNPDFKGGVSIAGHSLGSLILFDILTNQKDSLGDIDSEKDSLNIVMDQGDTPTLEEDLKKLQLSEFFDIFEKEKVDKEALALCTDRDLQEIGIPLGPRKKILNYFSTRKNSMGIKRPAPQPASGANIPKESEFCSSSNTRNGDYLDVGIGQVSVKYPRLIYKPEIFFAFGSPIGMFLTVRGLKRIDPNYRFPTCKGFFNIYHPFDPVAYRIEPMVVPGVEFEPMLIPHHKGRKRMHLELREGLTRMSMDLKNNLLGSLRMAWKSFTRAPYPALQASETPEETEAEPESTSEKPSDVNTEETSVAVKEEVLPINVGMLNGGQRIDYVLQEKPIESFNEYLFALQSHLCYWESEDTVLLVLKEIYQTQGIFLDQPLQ

Compound in this assay: Cc1nc(Nc2ncc(C(=O)Nc3c(C)cccc3Cl)s2)cc(N2CCN(CCO)CC2)n1 [dasatinib]
Kind of assay: log2 fold change of tryptic peptide abundance, ligand vs vehicle (limited proteolysis) (log2 ratio); higher = more trypsin-susceptible (destabilized). As to conditions: ligand concentration: 5 uM; sample: K562 cleared lysate.
On to “SUPT3H (peptide sequence: GIDEDDLLEDKLSGSNNANKR, peptide start residue: 113) (UniProt O75486)”, for which the log2 fold change is 0.0883.
In the case of “HSPA4L (peptide sequence: QVYVDKLQELKK, peptide start residue: 672) (UniProt O95757)”, the log2 fold change was determined as 0.176.
Next, “RSL1D1 (peptide sequence: EQTPEHGK, peptide start residue: 338) (UniProt O76021)”: -0.172; “YEATS4 (peptide sequence: KLEEDDQAKDI, peptide start residue: 217) (UniProt O95619)”: -0.253; “UniProt O94822 (peptide sequence: VFNIVDRFTSK, peptide start residue: 1590)”: -0.264.
Consider “TRIM37 (peptide sequence: KMVTLGANAK, peptide start residue: 854) (UniProt O94972)”, for which the log2 fold change was found to be 0.375.
For “LDHA (peptide sequence: DYNVTANSK, peptide start residue: 82) (UniProt P00338)” the value was -0.153; for “UniProt O75494 (peptide sequence: SFDYNYR, peptide start residue: 133)”, -0.0446; for “KATNA1 (peptide sequence: NLSKEEMHMPTTMEDFEMALKK, peptide start residue: 447) (UniProt O75449)”, -0.447.
As to “DDHD2 (peptide sequence: IDPNYRFPTCK, peptide start residue: 521) (UniProt O94830)”, the log2 fold change stood at 0.247.

(Values after the supplement of paper PMC12819154, “High-throughput peptide-centric local stability assay extends protein–ligand identification to membrane proteins, tissues and bacteria” (Nature Structural & Molecular Biology, 2025).)
